# Laboratory results published in paper PMC12283572.
# No constants are given. Whether binding was seen depends on the method and setting. For some assays here: In cells and extracts the contact can be indirect. Some binding calls cover weakened binding; strength is not graded here. Tags and fused reporters may be left off the sequences shown.
# T1: Irgb6 (Yeast Two-Hybrid fusion) (mouse) (UniProt Q62293)
# T1 sequence: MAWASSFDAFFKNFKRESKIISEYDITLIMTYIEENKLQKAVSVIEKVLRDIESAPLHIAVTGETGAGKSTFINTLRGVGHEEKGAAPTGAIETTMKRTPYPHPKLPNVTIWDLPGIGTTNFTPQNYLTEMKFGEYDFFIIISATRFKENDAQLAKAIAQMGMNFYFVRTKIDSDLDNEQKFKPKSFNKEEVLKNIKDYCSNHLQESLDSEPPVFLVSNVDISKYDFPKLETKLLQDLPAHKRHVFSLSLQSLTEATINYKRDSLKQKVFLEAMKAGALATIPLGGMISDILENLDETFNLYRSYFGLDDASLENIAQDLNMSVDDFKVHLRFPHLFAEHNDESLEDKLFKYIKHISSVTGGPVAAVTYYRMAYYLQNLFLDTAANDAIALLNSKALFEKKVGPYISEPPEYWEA
# T2: Irgb6 (β-lactamase fragment fusion for PCA) (mouse) (UniProt Q62293)
# T2 sequence: T1 sequence
# B1: GBP5 (Yeast Two-Hybrid fusion) (protein, UniProt Q8CFB4 1-590)
# chain: MAPEIHMPEPLCLIGSTEGHLVTNQEALKILSAITQPVVVVAIVGLYRTGKSYLMNKLAGKEKGFSVGSTVQSHTKGIWMWCVPHPQKPDHTLVLLDTEGLGDVEKDDKKNDTQIFALAILLSSTFVYNTMNKIDQGAIDLLHNVTELTDLLRTRNSSDSNQTEGEGPADMSFFPDLVWTLRDFFLDLQANGHAITSDEYLENSLKLKQGSDERTQTFNLPRLCIQKFFPVKKCFVFDAPALGSKLSQLPTLSNEELNSDFVQDLSEFCSHIFTQSKTKTLPGGIQVNGPRLESLVLTYVDAINSGALPSIENTVVTLARRENSAAVQKAIGHYDQLMSEKVQLPTETLQELLDLHRTCEREAIEIFRKHSFKDEGEFFQKELESLLSAKQDEICKKNADASAALCSTLLGSIFKPLEQEVAQEFYHKPGGHKLFLQRMEQLKANYRQQPGKGTQAEEVLQTYLNAKETVSRTILQTDQVLTDKEIQSKAEQERAEAARLEAQRLEAIRIQEEQRKAEMERQHQEQLRQIALEKARVAQEQQWILKQRAQEEADRIKAEQEAQLRALQQQLQHMREMNHHRRHHHDCVIS
# B2: GBP5 (β-lactamase fragment fusion for PCA) (protein, UniProt Q8CFB4 1-590)
# chain: B1 chain
# Experiments:
# [1] = target: T1, Irgb6 (Yeast Two-Hybrid fusion) (mouse); experiment: two-hybrid; S. cerevisiae PJ69-4α; Gal4 AD and BD fusions; colony growth on SD/-Leu/-Trp/-His with 0.5 mM 3-AT, 30°C, 5 to 14 days
# [2] = target: T2, Irgb6 (β-lactamase fragment fusion for PCA) (mouse); experiment: split reporter; Protein-fragment complementation assay (PCA): proteins fused to BlaN or BlaC fragments of TEM-1 β-lactamase, co-transfected in HEK293T cells, lysed 24 h later; nitrocefin hydrolysis in the supernatant read as absorbance at 495 nm
binder,measurement,setting,value
B1,binding,[1],binds
B2,binding,[2],binds
